# Data from the supplement of paper PMC4256282, “Profound Activity of the Anti-cancer Drug Bortezomib against Echinococcus multilocularis Metacestodes Identifies the Proteasome as a Novel Drug Target for Cestodes” (PLoS Neglected Tropical Diseases, 2014).
# Where a name gives a salt, the structure may show the parent alone. This is one part of the list. Most values come without repeats; read them as rough.
# Tested on: Echinococcus multilocularis metacestodes
# Experiment: vesicle damage (PGI release) relative to positive control DB1127 at 20 µM, DMSO subtracted; higher = more parasite damage
# Details: treatment time 5 days
row,Compound,vesicle damage [%]
1,Nc1nc(F)nc2c1ncn2[C@@H]1O[C@H](CO)[C@@H](O)[C@@H]1O [Fludarabine],-4.18
2,CC1=NN(c2ccc(C)c(C)c2)C(=O)/C1=N\Nc1cccc(-c2cccc(C(=O)O)c2)c1O [Eltrombopag],16.3
3,CCN(CC)CC(=O)Nc1c(C)cccc1C [Lidocaine],-1.43
4,Cc1ccc(NC(=O)c2ccc(CN3CCN(C)CC3)cc2)cc1Nc1nccc(-c2cccnc2)n1 [Imatinib Mesylate],-3.05
5,C[C@@H]1C/C=C/C=C/C=C/C=C/[C@H](O[C@@H]2O[C@H](C)[C@@H](O)[C@H](N)[C@@H]2O)C[C@@H]2O[C@](O)(C[C@@H](O)C[C@H]3O[C@@H]3/C=C/C(=O)O1)C[C@H](O)[C@H]2C(=O)O [Natamycin],1.87
6,CN(C/C=C/C#CC(C)(C)C)Cc1cccc2ccccc12 [Terbinafine],3.18
7,COc1ccccc1OCC(O)COC(N)=O (stereo not drawn) [Methocarbamol],-8.21
8,CC1(C)O[C@@H]2[C@@H](CO[C@@]3(COS(N)(=O)=O)OC(C)(C)O[C@@H]23)O1 [Topiramate],-0.345
